# This is one part of the list. Shown are side measurements of this screen, not its main read-out; they come without a call. Most of these compounds were active or inconclusive in the main read-out, so they are no random draw. Words in brackets tell the shape of the fitted curve; partial curves, single points and poor fits give uncertain potencies.
# Assay: IkB Signaling
# Settings: ABC-DLBCL IkBa-CBG/CBR dual luciferase ratio (green luciferase fused to IkBa over red control in OCI-Ly3 lymphoma cells), 4 h
# Procedure, shortened: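 Luminescence ratio of IκBα-fused green versus native red beetle luciferase in OCI-Ly3 cells, 4 h post-doxycycline with compound; red signal alone, scaled from basal (0%) to zero light (-100%), flagged nonspecific or cytotoxic effects.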
# [1] = measured here: control luc red channel unless noted
structure (smiles),measurement,setting,value
COc1ccc(OC)c(NC(=O)c2cccc3c2C(=O)N(C2CCCCC2)C3)c1,AC50,[1],"15.8 µM [falling, partial curve]"
O=C(Nc1ccc2c(c1)OCCO2)c1ccccc1F,AC50,[1],"15.8 µM [falling, partial curve]"
O=S(=O)(c1ccc(F)cc1)N(CC(O)Cn1c2ccccc2c2ccccc21)c1ccccc1 (configuration not stated),AC50,[1],"25.1 µM [falling, partial curve]"
CCOc1ccc(CCNC(=O)c2nnc(Cc3ccc(Cl)cc3Cl)o2)cc1OCC,AC50,[1],"0.00631 µM [falling, full curve, poor fit]"
CCOc1ccc2nc(N3CCN(C(=O)c4ccco4)CC3)sc2c1,AC50,[1],"25.1 µM [falling, partial curve, poor fit]"
COc1ccc(CNC(=O)C2CCCN(S(=O)(=O)c3ccc4c(ccn4C)c3)C2)c(OC)c1 (configuration not stated),AC50,[1],"20 µM [falling, partial curve]"
Cc1ccc(-n2ncc(C(=O)NCCN3CCc4ccccc4C3)c2C2CCN(C(=O)OC(C)(C)C)CC2)cc1C,AC50,[1],"25.1 µM [falling, partial curve]"
COc1ccc(-c2nc(SCC(=O)NC(C)CCc3ccccc3)n[nH]2)cc1 (configuration not stated),AC50,[1],"31.6 µM [falling, partial curve]"
CCOC(=O)c1c(C)oc2nc(C)nc(NCCc3ccc(OCC)c(OCC)c3)c12,AC50,[1],"31.6 µM [falling, partial curve, poor fit]"
COc1ccc(N2CCN(c3ncnc4c3cnn4-c3ccc(F)cc3)CC2)cc1,AC50,[1],"3.16 µM [falling, partial curve]"
COC(=O)c1ccc(NC(=O)CSc2cn(CC(=O)N3CCCCC3)c3ccccc23)cc1,AC50,[1],"31.6 µM [falling, single point]"
COc1ccc(CNS(=O)(=O)c2cc3c(cc2Cl)N(C(C)=O)CCO3)cc1,AC50,[1],"25.1 µM [falling, single point]"
CC1CCN(C(c2ccccc2)c2sc3nc(-c4ccco4)nn3c2O)CC1 (configuration not stated),AC50,[1],"6.31 µM [rising, single point]"
Cc1ccc(Nc2cc(C(=O)NCCc3ccccc3)c3ccccc3n2)c(C)c1,AC50,[1],"1.26 µM [falling, single point]"
COc1ccc(NC(=O)CSc2nc(-c3cc(OC)c(OC)c(OC)c3)[nH]c2-c2ccc(F)cc2)cc1,AC50,[1],"10 µM [falling, partial curve]"
Cc1ccccc1Cn1c(COc2ccc(Cl)cc2)nc2ccccc21,AC50,[1],"31.6 µM [falling, single point]"
COc1ccc(CNC(=O)C2CCN(c3nnc(-n4c(C)ccc4C)s3)CC2)c(OC)c1,AC50,[1],"10 µM [falling, partial curve]"
O=C(Nc1cccc(F)c1)C1CCCN(S(=O)(=O)c2cccc3cccnc23)C1 (configuration not stated),AC50,[1],"10 µM [falling, partial curve]"
CCCCN(C)CCCNC(=O)C1CCN(S(=O)(=O)CCC)CC1,AC50,[1],"15.8 µM [falling, partial curve, poor fit]"
COCCNc1nc2c(c(=O)n(C)c(=O)n2C)n1Cc1c(F)cccc1Cl,AC50,[1],"25.1 µM [falling, single point]"
Cc1oc(-c2cccc(Cl)c2)nc1CN1CCC(C(=O)NC(C)c2ccccc2)CC1 (configuration not stated),AC50,[1],"12.6 µM [falling, partial curve]"
COc1ccc(Cl)cc1NC(=O)CSc1cn(CC(=O)N2CCCCC2)c2ccccc12,AC50,[1],"7.94 µM [falling, partial curve]"
CCOCCc1nn2c(=O)cc(COC(=O)c3ccc(NC(=O)C4CCCCC4)cc3)nc2s1,AC50,[1],"31.6 µM [falling, single point]"
COc1ccccc1CNc1nc2ccc(C)cc2n2nnnc12,AC50,[1],"10 µM [falling, partial curve]"
Cc1nn(-c2ccccc2)c(OC(=O)c2ccccc2Br)c1S(=O)(=O)c1ccccc1,AC50,[1],"25.1 µM [falling, single point]"
O=C(CS(=O)(=O)c1cccc2nsnc12)N1CCN(c2ccccc2F)CC1,AC50,[1],"39.8 µM [rising, partial curve]"
O=C1CC(c2c(Cl)cccc2Cl)c2c(ccc3ccccc23)N1 (configuration not stated),AC50,[1],"39.8 µM [falling, single point]"
CCOc1ccc(NC(=O)N2CC3CCCN3c3ccccc32)cc1 (configuration not stated),AC50,[1],"39.8 µM [falling, single point]"
CC(=O)NNc1ncnc2c1cnn2-c1ccccc1,AC50,[1],"1.58 µM [falling, full curve]"
COC(=O)c1ccc(CCc2cc(O)ccc2O)cc1,AC50,[1],"3.98 µM [rising, partial curve] [measured here: IkB-luc green channel]"
Cc1nn(-c2ccccc2)c(C)c1C(=O)Nc1nnc(-c2ccco2)o1,AC50,[1],"39.8 µM [rising, single point] [measured here: IkB-luc green channel]"
COC(=O)c1cnc(N2CCN(c3ccc(OC)cc3)CC2)c2ccccc12,AC50,[1],"39.8 µM [falling, single point]"
Cc1ccccc1NS(=O)(=O)c1ccc2[nH]cc(C(=O)NCCc3ccccc3)c(=O)c2c1,AC50,[1],"20 µM [falling, single point]"
Cc1cccc(-c2nc(CN3CCCC(C(=O)NC4CCCC4)C3)c(C)o2)c1 (configuration not stated),AC50,[1],"25.1 µM [falling, partial curve]"
Cc1cccc2sc(NC(=O)CCNS(=O)(=O)c3cccc4nonc34)nc12,AC50,[1],"10 µM [falling, partial curve]"
Cc1ccc(-c2onc(C)c2C)cc1S(=O)(=O)N1CCN(c2ccccc2F)CC1,AC50,measured here: IkB-luc green channel,"3.98 µM [rising, partial curve]"
same,AC50,measured here: control luc red channel,"39.8 µM [falling, single point]"
COc1cc(OC)c(NC(=O)Nc2ccc3c(c2)N(C)C(=O)c2ccccc2S3)cc1Cl,AC50,[1],"7.94 µM [falling, partial curve]"
COc1cc(OC)cc(-n2c(=O)c3sccc3n(Cc3ccc(F)cc3)c2=O)c1,AC50,[1],"39.8 µM [rising, partial curve]"
CCn1c2ccccc2c2cc(CN3CCN(Cc4cccc(Cl)c4)CC3)ccc21,AC50,[1],"25.1 µM [falling, single point]"
COC(=O)c1ccccc1NC(=O)CCCn1nc(C)c2c(C)n(-c3ccccc3)nc2c1=O,AC50,[1],"10 µM [falling, single point]"
Cc1ccc(CNC(=O)c2cc(-c3ccc(C)c(C)c3)nc3ccccc23)cc1,AC50,[1],"6.31 µM [falling, partial curve]"
Cc1ccc(Cl)cc1N1CCN(c2nc3ccccc3c3nc(-c4cccnc4)nn23)CC1,AC50,[1],"0.00631 µM [rising, full curve, poor fit]"
CCCOc1ccc(Oc2nc(NC)nc(N3CCOCC3)n2)nn1,AC50,[1],"39.8 µM [falling, partial curve, poor fit]"
CCCCc1ccc(NC(=O)CSc2nc3ccccc3nc2N2CCCCC2)cc1,AC50,[1],"39.8 µM [falling, single point]"
O=C(CSc1nc2ccccc2c(=O)n1CC1CCCO1)N1CCN(c2ccccc2)CC1 (configuration not stated),AC50,[1],"10 µM [falling, partial curve]"
CCOc1ccc(NC(=O)C(CC)n2nc(C)c3c(C)n(-c4ccccc4)nc3c2=O)cc1 (configuration not stated),AC50,[1],"31.6 µM [falling, single point]"
Cn1c(=O)oc2cc(S(=O)(=O)NCC3CCCO3)ccc21 (configuration not stated),AC50,[1],"2.51 µM [falling, full curve]"
Cc1ccc(NC(=O)CN2C(=O)CC(c3ccco3)Sc3ccccc32)cc1Cl (configuration not stated),AC50,[1],"0.158 µM [falling, full curve]"
CCOC(=O)C1CCN(C(c2cc3ccc(C)cc3[nH]c2=O)c2nnnn2C2CCCCC2)CC1 (configuration not stated),AC50,[1],"25.1 µM [falling, partial curve]"
C=CCn1c(SCC(=O)c2cc(C)n(C(C)COC)c2C)nc2sc(C)c(C)c2c1=O (configuration not stated),AC50,[1],"10 µM [falling, partial curve]"
COc1cccc(CN2C(=O)C3(SCC(=O)N3c3ccc(C)c(Cl)c3)c3ccccc32)c1 (configuration not stated),AC50,[1],"7.94 µM [falling, full curve]"
CC1Cc2cc(S(=O)(=O)CCC(=O)Nc3ccccc3F)ccc2N1C(=O)C1CC1 (configuration not stated),AC50,[1],"10 µM [rising, partial curve]"
CC(=O)c1c(C)[nH]c(C(=O)OCc2nnc(-c3ccccc3)o2)c1C,AC50,[1],"20 µM [falling, partial curve]"
CC[C@@]1(O)C(=O)OCc2c1cc1n(c2=O)Cc2cc3c(CN(C)C)c(O)ccc3nc2-1,AC50,[1],"0.398 µM [falling, full curve]"
CCCCC(=O)N1CCc2cc(OC)c(OC)cc2C1COc1ccc(C(=O)OCC)cc1 (configuration not stated),AC50,[1],"39.8 µM [falling, single point]"
COc1ccc(N=Cc2c(O)[nH]c3ccccc23)cc1OC,AC50,[1],"6.31 µM [falling, partial curve]"
COc1ccc(-c2nc3n(n2)C(c2ccccc2OC)C(C(=O)Nc2cccnc2)=C(C)N3)cc1 (configuration not stated),AC50,[1],"25.1 µM [falling, partial curve]"
CCOc1ccccc1NC(=O)c1c2c(nc3ccccc13)C(=O)N(C1CCCCC1)C2,AC50,[1],"15.8 µM [falling, partial curve]"
O=C(C1CCC(CNS(=O)(=O)c2ccc(Br)s2)CC1)N1CCN(c2ccc(F)cc2)CC1 (configuration not stated),AC50,[1],"1.58 µM [falling, partial curve]"
COc1ccc(CNC(=O)c2ccc3c(c2)nc2n3CCCCC2)cc1,AC50,[1],"15.8 µM [falling, partial curve]"
Cc1ccc(NS(=O)(=O)c2ccc3c(c2)N(C)C(=O)CC(=O)N3C)cc1Cl,AC50,[1],"15.8 µM [falling, partial curve]"

# Some of the entries so far, tab-delimited:
structure (smiles)	measurement	setting	value
Cc1ccc(-c2onc(C)c2C)cc1S(=O)(=O)N1CCN(c2ccccc2F)CC1	AC50	measured here: control luc red channel	39.8 µM [falling, single point]
COc1cc(OC)c(NC(=O)Nc2ccc3c(c2)N(C)C(=O)c2ccccc2S3)cc1Cl	AC50	[1]	7.94 µM [falling, partial curve]
COc1cc(OC)cc(-n2c(=O)c3sccc3n(Cc3ccc(F)cc3)c2=O)c1	AC50	[1]	39.8 µM [rising, partial curve]
